Literature values in US11129897B2, “Fast-acting plant-based medicinal compounds and nutritional supplements” (RECEPTOR HOLDINGS, INC., priority 2016, dated 2021).

Settings: versus molecule without SNAC; in words; cited from earlier work

## CC(C)c1c(C(=O)Nc2ccccc2)c(-c2ccccc2)c(-c2ccc(F)cc2)n1CC[C@@H](O)C[C@@H](O)CC(=O)O [atorvastatin]
  absorption when co-administered with an N-acylated fatty amino acid (e.g., SNAC): improved absorption
